# Some of the results follow. These are further read-outs of the screen, such as a control signal, another cell line or another target. No call is given for them. Most of these compounds were active or inconclusive in the main read-out, so they are no random draw. The note in brackets gives the kind of curve behind each potency; many fits are weak.
# Assay: qHTS Assay for Lipid Storage Modulators in Drosophila S3 Cells;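 as to cell number change: cells counted by Cell Tracker Red CMTPX staining in the red channel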
# Conditions: BODIPY lipid droplet fluorescence, 18-24 h; for cell number change: measured here: cell count max response, cells fed with added oleic acid
# Outline: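 Laser-scanning cytometry quantifies lipid droplet accumulation (500–530 nm total intensity; droplet/cell object ratio) in oleic acid-fed (400 uM added) Drosophila S3 cells treated with a concentration series. 20 uM Triacsin C defined 100% inhibition.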
# [1] = measured here: cell number channel AC50, cells fed with added oleic acid
# [2] = measured here: lipid fluorescence (Fed channel) AC50, cells fed with added oleic acid
Structure (SMILES),AC50 [1],AC50 [2],cell number change [%]
COc1cccc(Cn2c(-c3nonc3N)nc3ccccc32)c1,"2910 nM [rising, partial curve]","461 nM [rising, single point]",
COc1ccc(N2CC(C(=O)NCCN3C(=O)S/C(=C\c4cccnc4)C3=O)CC2=O)c(OC)c1 (configuration not stated),"651 nM [rising, full curve]",,
COC(=O)C1=C(N)c2c(F)cccc2C1(C#N)c1ccccc1 (configuration not stated),"25900 nM [rising, single point]","1300 nM [falling, full curve, poor fit]",78.4
CCc1ccccc1NC(=O)C(Cc1cccc(OC)c1OC)c1nn[nH]n1 (configuration not stated),,"29100 nM [falling, partial curve, poor fit]",18.6
CC(C)OC(=O)CC1C(=O)NCCN1C(=S)NC(=O)c1ccccc1 (configuration not stated),,,14.3
COc1ccc2c(c1)-c1c(ssc1=S)C(C)(C)N2S(=O)(=O)c1ccc(C)cc1,"8200 nM [falling, partial curve]","6510 nM [falling, full curve]",-84.9
Cc1cccc(C(=O)N(CCc2ccccc2)Cc2ccccc2)c1[N+](=O)[O-],,"29100 nM [falling, single point]",3.78
COC(=O)N/N=C/c1cn(CCOc2cccc(OC)c2)c2ccccc12,,,28.8
COc1ccc(-c2noc(N3CCC(C(=O)N(C)c4ccccc4C)CC3)n2)cc1,,,-13.3
COc1ccc(CNC(=O)C(c2ccncc2)N(C(=O)Cc2cccs2)c2cccc(C)c2)cc1 (configuration not stated),,"11600 nM [falling, partial curve, poor fit]",-11.8
CNC(=O)c1ncnnc1N(C)C(=O)NCc1ccccc1,,"92 nM [falling, full curve]",8.01
FC(F)(F)c1ccccc1NC(=S)N/N=C1\CC2CC=CC12 (configuration not stated),"41.1 nM [rising, full curve, poor fit]","5.8 nM [rising, full curve, poor fit]",13.4
CCOc1cccc2sc(Nc3nc4ccc(NC(C)=O)cc4s3)nc12,"1030 nM [falling, full curve]","18400 nM [falling, partial curve]",-33.4
COc1ccc(N2CCN(S(=O)(=O)c3cc4c(cc3C)NC(=O)CO4)CC2)cc1,,,-4.03
COc1ccc(C(=O)N/N=C/c2cc3ccccc3[nH]c2=S)cc1,"731 nM [rising, partial curve, poor fit]","29100 nM [falling, single point]",
COc1cc(C(O)CO)ccc1O (configuration not stated),"1300 nM [falling, full curve, poor fit]","29100 nM [falling, single point]",-39.2

# Random excerpt: two compounds from above, in no set order.
Structure (SMILES),AC50 [1],AC50 [2],cell number change [%]
COc1ccc(CNC(=O)C(c2ccncc2)N(C(=O)Cc2cccs2)c2cccc(C)c2)cc1 (configuration not stated),,"11600 nM [falling, partial curve, poor fit]",-11.8
COC(=O)C1=C(N)c2c(F)cccc2C1(C#N)c1ccccc1 (configuration not stated),"25900 nM [rising, single point]","1300 nM [falling, full curve, poor fit]",78.4

# — PubChem BioAssay AID2685 (National Center for Advancing Translational Sciences (NCATS), 2010)
